Experimental data from patent US20220089670A1.
No constants are given. Whether binding was seen depends on the method and setting. Binding seen in cells or lysates may run through a third protein. Some results given as binding are weak or reduced against the parent protein; the word gives no strength. Tags and fused reporters may be left off the sequences shown.

T1: WT BEST1-CFP-Myc (human) (UniProt O76090)
T1 sequence: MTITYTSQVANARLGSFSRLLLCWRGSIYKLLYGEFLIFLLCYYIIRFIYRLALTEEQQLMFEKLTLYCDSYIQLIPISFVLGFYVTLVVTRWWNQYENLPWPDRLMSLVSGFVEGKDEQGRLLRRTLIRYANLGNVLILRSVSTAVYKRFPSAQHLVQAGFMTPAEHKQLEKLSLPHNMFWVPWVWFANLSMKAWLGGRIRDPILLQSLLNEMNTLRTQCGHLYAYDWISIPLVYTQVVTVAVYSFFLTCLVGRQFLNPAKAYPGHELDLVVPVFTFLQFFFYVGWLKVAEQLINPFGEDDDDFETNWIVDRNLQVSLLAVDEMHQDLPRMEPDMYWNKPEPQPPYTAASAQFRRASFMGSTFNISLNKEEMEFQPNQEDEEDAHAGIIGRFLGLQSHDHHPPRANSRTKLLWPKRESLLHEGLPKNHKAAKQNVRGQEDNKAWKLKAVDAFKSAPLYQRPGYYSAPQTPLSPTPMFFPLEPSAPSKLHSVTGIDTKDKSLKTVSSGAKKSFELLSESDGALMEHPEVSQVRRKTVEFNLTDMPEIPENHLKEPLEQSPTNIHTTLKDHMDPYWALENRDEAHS


Target: T1, WT BEST1-CFP-Myc (human)
Assay: co-immunoprecipitation (anti-Myc IP, anti-His immunoblot) from co-transfected HEK293 cells

binding | Binder
binds | BEST1 A10T-YFP-His (protein, not shown: large carriers; small tags and cut ends) MTITYTSQVTNARLGSFSRLLLCWRGSIYKLLYGEFLIFLLCYYIIRFIYRLALTEEQQLMFEKLTLYCDSYIQLIPISFVLGFYVTLVVTRWWNQYENLPWPDRLMSLVSGFVEGKDEQGRLLRRTLIRYANLGNVLILRSVSTAVYKRFPSAQHLVQAGFMTPAEHKQLEKLSLPHNMFWVPWVWFANLSMKAWLGGRIRDPILLQSLLNEMNTLRTQCGHLYAYDWISIPLVYTQVVTVAVYSFFLTCLVGRQFLNPAKAYPGHELDLVVPVFTFLQFFFYVGWLKVAEQLINPFGEDDDDFETNWIVDRNLQVSLLAVDEMHQDLPRMEPDMYWNKPEPQPPYTAASAQFRRASFMGSTFNISLNKEEMEFQPNQEDEEDAHAGIIGRFLGLQSHDHHPPRANSRTKLLWPKRESLLHEGLPKNHKAAKQNVRGQEDNKAWKLKAVDAFKSAPLYQRPGYYSAPQTPLSPTPMFFPLEPSAPSKLHSVTGIDTKDKSLKTVSSGAKKSFELLSESDGALMEHPEVSQVRRKTVEFNLTDMPEIPENHLKEPLEQSPTNIHTTLKDHMDPYWALENRDEAHS
binds | BEST1 L234P-YFP-His (protein, not shown: large carriers; small tags and cut ends) MTITYTSQVANARLGSFSRLLLCWRGSIYKLLYGEFLIFLLCYYIIRFIYRLALTEEQQLMFEKLTLYCDSYIQLIPISFVLGFYVTLVVTRWWNQYENLPWPDRLMSLVSGFVEGKDEQGRLLRRTLIRYANLGNVLILRSVSTAVYKRFPSAQHLVQAGFMTPAEHKQLEKLSLPHNMFWVPWVWFANLSMKAWLGGRIRDPILLQSLLNEMNTLRTQCGHLYAYDWISIPPVYTQVVTVAVYSFFLTCLVGRQFLNPAKAYPGHELDLVVPVFTFLQFFFYVGWLKVAEQLINPFGEDDDDFETNWIVDRNLQVSLLAVDEMHQDLPRMEPDMYWNKPEPQPPYTAASAQFRRASFMGSTFNISLNKEEMEFQPNQEDEEDAHAGIIGRFLGLQSHDHHPPRANSRTKLLWPKRESLLHEGLPKNHKAAKQNVRGQEDNKAWKLKAVDAFKSAPLYQRPGYYSAPQTPLSPTPMFFPLEPSAPSKLHSVTGIDTKDKSLKTVSSGAKKSFELLSESDGALMEHPEVSQVRRKTVEFNLTDMPEIPENHLKEPLEQSPTNIHTTLKDHMDPYWALENRDEAHS
binds | BEST1 D302A-YFP-His (protein, not shown: large carriers; small tags and cut ends) MTITYTSQVANARLGSFSRLLLCWRGSIYKLLYGEFLIFLLCYYIIRFIYRLALTEEQQLMFEKLTLYCDSYIQLIPISFVLGFYVTLVVTRWWNQYENLPWPDRLMSLVSGFVEGKDEQGRLLRRTLIRYANLGNVLILRSVSTAVYKRFPSAQHLVQAGFMTPAEHKQLEKLSLPHNMFWVPWVWFANLSMKAWLGGRIRDPILLQSLLNEMNTLRTQCGHLYAYDWISIPLVYTQVVTVAVYSFFLTCLVGRQFLNPAKAYPGHELDLVVPVFTFLQFFFYVGWLKVAEQLINPFGEDADDFETNWIVDRNLQVSLLAVDEMHQDLPRMEPDMYWNKPEPQPPYTAASAQFRRASFMGSTFNISLNKEEMEFQPNQEDEEDAHAGIIGRFLGLQSHDHHPPRANSRTKLLWPKRESLLHEGLPKNHKAAKQNVRGQEDNKAWKLKAVDAFKSAPLYQRPGYYSAPQTPLSPTPMFFPLEPSAPSKLHSVTGIDTKDKSLKTVSSGAKKSFELLSESDGALMEHPEVSQVRRKTVEFNLTDMPEIPENHLKEPLEQSPTNIHTTLKDHMDPYWALENRDEAHS
binds | BEST1 Q293K-YFP-His (protein, not shown: large carriers; small tags and cut ends) MTITYTSQVANARLGSFSRLLLCWRGSIYKLLYGEFLIFLLCYYIIRFIYRLALTEEQQLMFEKLTLYCDSYIQLIPISFVLGFYVTLVVTRWWNQYENLPWPDRLMSLVSGFVEGKDEQGRLLRRTLIRYANLGNVLILRSVSTAVYKRFPSAQHLVQAGFMTPAEHKQLEKLSLPHNMFWVPWVWFANLSMKAWLGGRIRDPILLQSLLNEMNTLRTQCGHLYAYDWISIPLVYTQVVTVAVYSFFLTCLVGRQFLNPAKAYPGHELDLVVPVFTFLQFFFYVGWLKVAEKLINPFGEDDDDFETNWIVDRNLQVSLLAVDEMHQDLPRMEPDMYWNKPEPQPPYTAASAQFRRASFMGSTFNISLNKEEMEFQPNQEDEEDAHAGIIGRFLGLQSHDHHPPRANSRTKLLWPKRESLLHEGLPKNHKAAKQNVRGQEDNKAWKLKAVDAFKSAPLYQRPGYYSAPQTPLSPTPMFFPLEPSAPSKLHSVTGIDTKDKSLKTVSSGAKKSFELLSESDGALMEHPEVSQVRRKTVEFNLTDMPEIPENHLKEPLEQSPTNIHTTLKDHMDPYWALENRDEAHS
binds | BEST1 R218H-YFP-His (protein, not shown: large carriers; small tags and cut ends) MTITYTSQVANARLGSFSRLLLCWRGSIYKLLYGEFLIFLLCYYIIRFIYRLALTEEQQLMFEKLTLYCDSYIQLIPISFVLGFYVTLVVTRWWNQYENLPWPDRLMSLVSGFVEGKDEQGRLLRRTLIRYANLGNVLILRSVSTAVYKRFPSAQHLVQAGFMTPAEHKQLEKLSLPHNMFWVPWVWFANLSMKAWLGGRIRDPILLQSLLNEMNTLHTQCGHLYAYDWISIPLVYTQVVTVAVYSFFLTCLVGRQFLNPAKAYPGHELDLVVPVFTFLQFFFYVGWLKVAEQLINPFGEDDDDFETNWIVDRNLQVSLLAVDEMHQDLPRMEPDMYWNKPEPQPPYTAASAQFRRASFMGSTFNISLNKEEMEFQPNQEDEEDAHAGIIGRFLGLQSHDHHPPRANSRTKLLWPKRESLLHEGLPKNHKAAKQNVRGQEDNKAWKLKAVDAFKSAPLYQRPGYYSAPQTPLSPTPMFFPLEPSAPSKLHSVTGIDTKDKSLKTVSSGAKKSFELLSESDGALMEHPEVSQVRRKTVEFNLTDMPEIPENHLKEPLEQSPTNIHTTLKDHMDPYWALENRDEAHS
